Experimental data reported in patent publication US20150038526A1, “FLUORINE-CONTAINING 5-[2-(PYRID-3-YL)-ETHYL]-2,3,4-TETRAHYDRO-1H-PYRIDO[4,3-B]INDOLES AS AGENTS FOR REDUCING UNCONTROLLED PROTEIN AGGREGATION” (FEDERALNOE GOSUDARSTVENNOE BUDZHETNOE UCHREZHDENIE NAUKI …, priority 2011, published 2015).
Entries after “also recorded” stand apart in the source; their conditions may differ. For at least one compound, name, drawing or mass did not settle the structure.

Legend:
[1] = tested on: Thy1mγSN transgenic mice; test: Balance and coordination on accelerating rotating rod; type: in vivo; details: 4 to 40 rpm over 5 min; treated from the age of one month vs untreated control
[2] = tested on: Thy1mγSN transgenic mice; test: Amyloid-like gamma-synuclein inclusions in spinal cord sections (Congo Red / immunostaining, counting); type: in vivo; details: FC-203 in drinking water (70 μg/m, 11.7 mg/kg daily) from the age of 12-week for 9 months; 12-month old homozygous mice vs untreated control
[3] = tested on: P301S transgenic mice; test: Astrogliosis (GFAP immunostaining) in spinal cord sections; type: in vivo; details: 4- and 5-month old mice, FC-203 in drinking water
[4] = tested on: aberrant human TDP-43 protein; test: Formation of TDP-43 protein aggregates in transfected SH-SY5Y cell cultures; type: cell-based; details: SH-SY5Y cells transfected with truncated human TDP-43; assessed after 18 hours
[5] = tested on: Thy1mγSN transgenic mice; test: Ability to hold onto an inverted grid; type: in vivo; details: evaluated every month from the age of three month; treated vs untreated control
[6] = tested on: P301S transgenic mice; test: Ability to hold onto an inverted grid; type: in vivo; details: evaluated every month from the age of two month; treated from the age of one month vs untreated control
[7] = tested on: Thy1mγSN transgenic mice; test: Astrogliosis (GFAP immunostaining) in spinal cord sections; type: in vivo; details: long-term administration in drinking water, 12-month old mice
[8] = tested on: P301S transgenic mice; test: Tau-positive aggregates in spinal cord sections; type: in vivo; details: FC-203 in drinking water from the age of 5-week for 15 or 20 weeks (4- or 5-month old) vs untreated control
[9] = tested on: P301S transgenic mice; test: Balance and coordination on accelerating rotating rod; type: in vivo; details: 4 to 40 rpm over 5 min; treated from the age of one month vs untreated control
[10] = tested on: mutant human FUS proteins; test: Formation of FUS protein aggregates in transfected SH-SY5Y cell cultures; type: cell-based; details: SH-SY5Y cells; FC-203 added to culture medium right after transfection

Structure (SMILES): Cc1ccc2c(c1)c1c(n2CCc2cncc(F)c2)CCN(C)C1 [FC-203]
- mean latency to fall from rotating rod (balance and coordination) [1]: significantly inhibits the development of the clinical symptoms
- number of amyloid deposits in the spinal cord tissues [2]: significantly decreases the number of amyloid deposits
- level of astrogliosis (GFAP) [3]: significantly reduces the intensity of astrogliosis; also recorded: significantly reduces the level of astrogliosis
- number of TDP-43 aggregates in cytoplasm [4]: number of aggregates was significantly reduced; also recorded: reduced number of stained TDP-43-positive aggregates
- mean latency to fall from inverted grid [5]: significantly inhibits the development of clinical symptoms
- mean latency to fall from inverted grid [6]: significantly inhibits the development of clinical symptoms
- level of activated astrocytes (GFAP) [7]: significantly decreases the level of activated astrocytes
- number of tau-positive deposits in the spinal cord neurons [8]: statistically significant reduction in the number of tau-positive deposits; also recorded: effectively reduces the formation of deposits of human tau protein
- mean latency to fall from rotating rod (balance and coordination) [9]: significantly inhibits the development of clinical symptoms of taupathy; also recorded: effectively reduces balance and coordination disturbance
- formation of FUS protein aggregates (inclusions) [10]: significantly inhibited the process of the formation of protein aggregates; also recorded: FUS staining in treated cells is diffused
